Laboratory results published in the supplement of paper PMC12067093, “Discovery and optimisation of a covalent ligand for TRIM25 and its application to targeted protein ubiquitination” (Chemical Science, 2025).
Some of the results follow.

Sequences of proteins named here, by UniProt entry; tags and fusion partners are left off. A change or cut given only in a name is not applied to a line headed by its entry.
UniProt Q8WYQ5: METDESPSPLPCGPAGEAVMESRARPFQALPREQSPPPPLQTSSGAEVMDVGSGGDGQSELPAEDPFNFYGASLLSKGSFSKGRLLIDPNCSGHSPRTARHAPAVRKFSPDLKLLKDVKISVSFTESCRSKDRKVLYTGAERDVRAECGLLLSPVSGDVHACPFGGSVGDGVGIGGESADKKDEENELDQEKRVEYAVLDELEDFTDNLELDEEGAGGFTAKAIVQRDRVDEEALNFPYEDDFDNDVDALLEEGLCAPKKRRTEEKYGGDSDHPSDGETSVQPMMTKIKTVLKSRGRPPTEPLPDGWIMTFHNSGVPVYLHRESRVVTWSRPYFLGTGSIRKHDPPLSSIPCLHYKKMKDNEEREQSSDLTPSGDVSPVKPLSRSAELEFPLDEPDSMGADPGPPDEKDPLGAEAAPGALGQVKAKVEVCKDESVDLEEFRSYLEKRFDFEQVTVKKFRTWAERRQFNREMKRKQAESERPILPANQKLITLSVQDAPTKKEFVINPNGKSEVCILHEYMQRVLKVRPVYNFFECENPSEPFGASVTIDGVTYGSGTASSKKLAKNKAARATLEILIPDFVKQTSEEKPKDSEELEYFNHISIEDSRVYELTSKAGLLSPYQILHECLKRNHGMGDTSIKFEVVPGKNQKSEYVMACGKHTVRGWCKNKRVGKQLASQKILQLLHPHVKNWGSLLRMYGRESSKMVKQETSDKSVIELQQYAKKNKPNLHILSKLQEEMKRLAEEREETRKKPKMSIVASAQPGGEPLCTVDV
UniProt Q9H8H2: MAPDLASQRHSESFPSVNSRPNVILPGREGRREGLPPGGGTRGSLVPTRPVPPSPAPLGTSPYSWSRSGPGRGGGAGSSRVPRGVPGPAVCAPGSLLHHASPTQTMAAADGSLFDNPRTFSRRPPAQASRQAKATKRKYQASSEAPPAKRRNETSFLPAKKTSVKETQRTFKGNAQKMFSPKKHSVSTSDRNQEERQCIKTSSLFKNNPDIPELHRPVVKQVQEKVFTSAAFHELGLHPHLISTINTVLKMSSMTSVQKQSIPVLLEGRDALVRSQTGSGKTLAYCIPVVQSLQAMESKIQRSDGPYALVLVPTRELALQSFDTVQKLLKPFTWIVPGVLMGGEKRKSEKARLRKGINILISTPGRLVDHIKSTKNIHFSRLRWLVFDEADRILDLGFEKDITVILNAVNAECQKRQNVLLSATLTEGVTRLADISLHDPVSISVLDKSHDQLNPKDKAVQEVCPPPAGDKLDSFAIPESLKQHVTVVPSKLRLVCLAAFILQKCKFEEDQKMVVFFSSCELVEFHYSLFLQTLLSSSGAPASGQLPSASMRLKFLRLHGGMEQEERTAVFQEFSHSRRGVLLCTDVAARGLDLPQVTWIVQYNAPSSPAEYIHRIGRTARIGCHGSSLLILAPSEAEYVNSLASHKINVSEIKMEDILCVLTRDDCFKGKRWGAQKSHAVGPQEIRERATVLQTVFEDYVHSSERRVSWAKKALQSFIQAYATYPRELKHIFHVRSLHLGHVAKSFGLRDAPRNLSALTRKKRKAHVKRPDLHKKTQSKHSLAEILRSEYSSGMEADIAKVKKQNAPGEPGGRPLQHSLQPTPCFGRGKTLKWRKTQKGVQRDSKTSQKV
UniProt P17844: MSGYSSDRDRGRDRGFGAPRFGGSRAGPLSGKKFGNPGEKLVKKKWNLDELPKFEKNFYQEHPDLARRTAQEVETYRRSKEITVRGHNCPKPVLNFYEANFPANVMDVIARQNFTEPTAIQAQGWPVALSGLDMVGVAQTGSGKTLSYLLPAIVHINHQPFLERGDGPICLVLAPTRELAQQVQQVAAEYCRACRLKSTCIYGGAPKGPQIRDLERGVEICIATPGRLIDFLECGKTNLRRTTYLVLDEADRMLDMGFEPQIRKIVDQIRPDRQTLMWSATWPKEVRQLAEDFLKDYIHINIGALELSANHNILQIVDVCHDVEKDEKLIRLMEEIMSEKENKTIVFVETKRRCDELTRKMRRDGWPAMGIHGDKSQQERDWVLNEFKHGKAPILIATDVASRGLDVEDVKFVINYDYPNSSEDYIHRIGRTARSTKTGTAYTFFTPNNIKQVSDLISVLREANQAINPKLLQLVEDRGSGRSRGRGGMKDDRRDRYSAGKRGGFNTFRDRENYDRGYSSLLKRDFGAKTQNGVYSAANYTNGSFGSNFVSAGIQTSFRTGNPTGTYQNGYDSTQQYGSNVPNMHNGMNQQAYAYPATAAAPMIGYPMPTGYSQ
UniProt Q9UJV9: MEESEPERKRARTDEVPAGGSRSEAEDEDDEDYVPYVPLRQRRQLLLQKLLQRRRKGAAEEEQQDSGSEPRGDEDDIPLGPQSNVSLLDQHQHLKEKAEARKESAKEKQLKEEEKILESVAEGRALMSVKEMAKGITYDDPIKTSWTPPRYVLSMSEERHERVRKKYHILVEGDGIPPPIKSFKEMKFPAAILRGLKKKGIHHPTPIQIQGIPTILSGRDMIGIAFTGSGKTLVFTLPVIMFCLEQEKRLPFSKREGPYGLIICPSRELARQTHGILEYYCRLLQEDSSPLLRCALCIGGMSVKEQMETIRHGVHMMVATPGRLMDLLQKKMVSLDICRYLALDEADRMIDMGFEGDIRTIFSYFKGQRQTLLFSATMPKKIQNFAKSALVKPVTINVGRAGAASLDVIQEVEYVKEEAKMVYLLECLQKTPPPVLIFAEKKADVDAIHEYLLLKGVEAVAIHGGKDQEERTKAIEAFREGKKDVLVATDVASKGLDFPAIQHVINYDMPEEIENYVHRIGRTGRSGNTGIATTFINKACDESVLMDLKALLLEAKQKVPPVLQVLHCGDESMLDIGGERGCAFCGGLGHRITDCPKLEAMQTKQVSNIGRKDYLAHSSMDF
UniProt Q5H9U9: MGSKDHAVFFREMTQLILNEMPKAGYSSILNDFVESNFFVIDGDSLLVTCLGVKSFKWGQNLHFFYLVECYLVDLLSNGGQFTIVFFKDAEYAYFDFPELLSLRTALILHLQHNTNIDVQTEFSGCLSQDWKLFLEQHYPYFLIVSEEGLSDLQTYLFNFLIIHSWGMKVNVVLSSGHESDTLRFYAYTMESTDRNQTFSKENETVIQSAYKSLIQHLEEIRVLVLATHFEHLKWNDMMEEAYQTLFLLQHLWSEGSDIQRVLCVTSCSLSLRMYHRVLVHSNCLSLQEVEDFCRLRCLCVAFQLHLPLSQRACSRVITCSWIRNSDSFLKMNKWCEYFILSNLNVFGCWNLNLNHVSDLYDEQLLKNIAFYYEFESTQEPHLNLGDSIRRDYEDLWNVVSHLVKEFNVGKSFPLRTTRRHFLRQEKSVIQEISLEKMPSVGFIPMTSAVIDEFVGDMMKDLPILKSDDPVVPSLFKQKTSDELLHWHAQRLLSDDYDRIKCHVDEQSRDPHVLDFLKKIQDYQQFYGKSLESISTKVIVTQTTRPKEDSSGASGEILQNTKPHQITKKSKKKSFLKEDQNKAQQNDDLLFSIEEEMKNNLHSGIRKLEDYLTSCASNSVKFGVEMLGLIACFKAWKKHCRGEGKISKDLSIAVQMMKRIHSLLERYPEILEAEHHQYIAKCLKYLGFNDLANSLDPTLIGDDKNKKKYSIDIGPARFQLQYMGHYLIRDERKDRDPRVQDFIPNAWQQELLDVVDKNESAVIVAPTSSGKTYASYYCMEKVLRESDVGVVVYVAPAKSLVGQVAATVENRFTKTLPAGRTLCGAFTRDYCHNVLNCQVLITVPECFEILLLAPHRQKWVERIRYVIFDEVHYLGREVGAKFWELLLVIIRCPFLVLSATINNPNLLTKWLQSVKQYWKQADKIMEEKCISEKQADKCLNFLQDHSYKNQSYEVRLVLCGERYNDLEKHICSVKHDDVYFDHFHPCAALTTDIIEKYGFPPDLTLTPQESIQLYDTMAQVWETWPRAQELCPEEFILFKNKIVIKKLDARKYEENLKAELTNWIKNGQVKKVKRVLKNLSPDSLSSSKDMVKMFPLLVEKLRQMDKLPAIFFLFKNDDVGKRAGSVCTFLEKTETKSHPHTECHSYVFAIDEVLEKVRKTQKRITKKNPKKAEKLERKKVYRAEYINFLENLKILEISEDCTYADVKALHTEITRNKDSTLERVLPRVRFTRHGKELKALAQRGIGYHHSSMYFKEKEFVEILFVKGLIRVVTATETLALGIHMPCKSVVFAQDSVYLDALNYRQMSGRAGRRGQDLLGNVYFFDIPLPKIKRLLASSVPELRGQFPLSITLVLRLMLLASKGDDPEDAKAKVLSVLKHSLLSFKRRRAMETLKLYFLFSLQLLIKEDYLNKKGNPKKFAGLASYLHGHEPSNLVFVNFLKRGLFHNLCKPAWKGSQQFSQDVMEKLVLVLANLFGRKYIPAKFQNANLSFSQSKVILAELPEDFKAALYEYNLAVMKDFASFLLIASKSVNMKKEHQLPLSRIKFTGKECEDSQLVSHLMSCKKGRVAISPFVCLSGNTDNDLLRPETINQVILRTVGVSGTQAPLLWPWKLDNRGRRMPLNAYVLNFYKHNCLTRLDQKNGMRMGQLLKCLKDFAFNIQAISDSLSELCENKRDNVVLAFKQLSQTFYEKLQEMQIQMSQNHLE
UniProt Q92499: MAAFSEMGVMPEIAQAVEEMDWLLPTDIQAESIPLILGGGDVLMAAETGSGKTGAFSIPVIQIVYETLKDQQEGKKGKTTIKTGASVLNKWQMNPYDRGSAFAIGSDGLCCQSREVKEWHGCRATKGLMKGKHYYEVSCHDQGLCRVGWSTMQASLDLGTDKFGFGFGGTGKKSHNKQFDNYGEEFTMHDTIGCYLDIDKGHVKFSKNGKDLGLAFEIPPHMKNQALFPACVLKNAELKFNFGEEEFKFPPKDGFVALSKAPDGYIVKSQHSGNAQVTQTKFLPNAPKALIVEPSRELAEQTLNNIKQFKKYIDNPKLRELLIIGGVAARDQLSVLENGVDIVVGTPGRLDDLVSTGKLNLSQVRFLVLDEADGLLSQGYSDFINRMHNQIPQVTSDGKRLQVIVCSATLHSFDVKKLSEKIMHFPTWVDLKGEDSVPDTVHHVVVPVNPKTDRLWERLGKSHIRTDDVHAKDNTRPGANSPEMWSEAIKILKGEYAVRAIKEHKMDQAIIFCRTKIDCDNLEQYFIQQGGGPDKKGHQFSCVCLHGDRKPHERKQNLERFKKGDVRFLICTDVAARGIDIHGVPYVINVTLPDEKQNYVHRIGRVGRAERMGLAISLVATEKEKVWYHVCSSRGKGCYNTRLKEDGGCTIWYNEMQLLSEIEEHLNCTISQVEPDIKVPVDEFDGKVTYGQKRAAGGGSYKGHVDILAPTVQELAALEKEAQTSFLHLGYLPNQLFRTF
UniProt O95786: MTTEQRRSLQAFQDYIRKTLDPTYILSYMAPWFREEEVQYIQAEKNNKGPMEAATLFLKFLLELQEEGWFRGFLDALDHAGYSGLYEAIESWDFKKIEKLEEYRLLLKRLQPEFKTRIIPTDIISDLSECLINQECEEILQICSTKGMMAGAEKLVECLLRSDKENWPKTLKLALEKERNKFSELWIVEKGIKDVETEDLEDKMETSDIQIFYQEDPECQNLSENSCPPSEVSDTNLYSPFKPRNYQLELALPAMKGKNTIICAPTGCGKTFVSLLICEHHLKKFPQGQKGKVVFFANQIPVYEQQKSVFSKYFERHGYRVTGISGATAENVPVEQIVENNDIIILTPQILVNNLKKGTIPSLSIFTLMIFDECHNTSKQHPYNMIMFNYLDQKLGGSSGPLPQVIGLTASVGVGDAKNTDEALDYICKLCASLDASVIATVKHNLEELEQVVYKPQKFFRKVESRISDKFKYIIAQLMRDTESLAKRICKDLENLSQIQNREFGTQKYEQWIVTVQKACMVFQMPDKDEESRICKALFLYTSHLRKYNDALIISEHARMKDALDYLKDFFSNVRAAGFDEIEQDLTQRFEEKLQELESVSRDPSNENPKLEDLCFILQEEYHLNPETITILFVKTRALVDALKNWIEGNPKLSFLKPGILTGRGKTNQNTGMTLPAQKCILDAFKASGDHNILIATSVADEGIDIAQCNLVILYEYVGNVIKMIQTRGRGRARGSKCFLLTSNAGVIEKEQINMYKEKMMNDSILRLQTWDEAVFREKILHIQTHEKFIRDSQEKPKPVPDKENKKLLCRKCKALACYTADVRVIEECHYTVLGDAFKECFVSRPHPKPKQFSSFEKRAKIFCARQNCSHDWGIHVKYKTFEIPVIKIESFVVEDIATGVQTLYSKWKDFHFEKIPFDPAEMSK
UniProt Q16698: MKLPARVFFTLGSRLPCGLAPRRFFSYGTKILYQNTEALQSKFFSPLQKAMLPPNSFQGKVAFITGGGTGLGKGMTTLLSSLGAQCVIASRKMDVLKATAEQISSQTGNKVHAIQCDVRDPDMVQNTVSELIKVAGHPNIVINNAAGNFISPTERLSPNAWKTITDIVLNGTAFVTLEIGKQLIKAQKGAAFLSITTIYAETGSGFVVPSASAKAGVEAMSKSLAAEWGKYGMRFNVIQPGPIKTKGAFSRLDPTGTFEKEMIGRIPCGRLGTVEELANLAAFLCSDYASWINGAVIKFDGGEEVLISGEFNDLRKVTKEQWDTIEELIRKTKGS

Compound: CC1Cc2ccccc2N1C(=O)C1CCCN(C1)C(=O)CCl (mixture of isomers) [TRIM25 ligand 11 (diastereomer mixture)]
Test: probe-labelled cysteine peptide fold change vs DMSO (competition) (log2 fold change); higher = less target engagement (more negative = stronger competition)
Settings: THP-1, incubation time: 4 h
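Note: competitive chemoproteomic profiling in live THP-1 cells with an iodoacetamide desthiobiotin (IA-DTB) probe, comparing probe-labelled peptide intensities in compound-treated cells against DMSO-treated controls.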

Target | probe-labelled cysteine peptide fold change (10 µM) | probe-labelled cysteine peptide fold change (50 µM)
DDX39A_O00148_238_DIRPVCR (UniProt O00148) | 0.0321 | 0.00375
DDX17_Q92841_199_PVFAFHHANFPQYVMDVLMDQHFTEPTPIQCQGFPLALSGR (UniProt Q92841) | -0.00752 | 0.0351
DDX54_Q8TDD1_73_LGPGRPLPTFPTSECTSDVEPDTR (UniProt Q8TDD1) | 0.0359 | -0.218
DGKQ_P52824_171_QCHQDGHQDHDTHHHHWR (UniProt P52824) | 0.225 | 0.0308
DGCR8_Q8WYQ5_627_AGLLSPYQILHECLK (UniProt Q8WYQ5) | 0.126 | 0.357
DENND1C_Q8IV53_781_EEPGALNSPATPTSNCQK (UniProt Q8IV53) | -0.055 | -0.181
DDX31_Q9H8H2_464_AVQEVCPPPAGDK (UniProt Q9H8H2) | 0.447 | 0.125
DDX5_P17844_234_LIDFLECGK (UniProt P17844) | -0.125 | -0.119
DDX41_Q9UJV9_264_EGPYGLIICPSR (UniProt Q9UJV9) | 0.245 | 0.0445
DECR2_Q9NUI1_22_HLFCPDLLR (UniProt Q9NUI1) | 0.0413 | -0.0816
DDX52_Q9Y2R4_59_SVPGVCGASQTHQKPQNGEK (UniProt Q9Y2R4) | -0.011 | -0.231
DDX60L_Q5H9U9_938_CLNFLQDHSYK (UniProt Q5H9U9) | 0.0732 | -0.0548
DGCR8_Q8WYQ5_514_SEVCILHEYMQR (UniProt Q8WYQ5) | 0.121 | 0.0425
DDX59_Q5T1V6_208_QQLGILVQGQEVTRPIIDFEHCSLPEVLNHNLK (UniProt Q5T1V6) | -0.0333 | -0.158
DDB1_Q16531_378_QGQGQLVTCSGAFK (UniProt Q16531) | 0.0987 | 0.102
DDX1_Q92499_544_KGHQFSCVCLHGDR (UniProt Q92499) | 0.0707 | 0.000187
DEF6_Q9H4E7_266_GIIPLDAHCCVEVLPDRDGKR (UniProt Q9H4E7) | 0.0844 | 0.169
DDX1_Q92499_542_GHQFSCVCLHGDR (UniProt Q92499) | 0.0203 | 0.031
DDX58_O95786_680_CILDAFK (UniProt O95786) | -0.00252 | 0.00883
DDX17_Q92841_447_RDGWPAMCIHGDK (UniProt Q92841) | -0.122 | -0.265

Target | probe-labelled cysteine peptide fold change (10 µM) | probe-labelled cysteine peptide fold change (50 µM)
DDX39B_Q13838_300_CIALAQLLVEQNFPAIAIHR (UniProt Q13838) | 0.224 | 0.206
DDHD2_O94830_207+227_RGVENISVDIHCGEPLQIDHLVFVVHGIGPACDLR (UniProt O94830) | 0.139 | -0.104
DGLUCY_Q7Z3D6-2_165_TTVPCVTHAGFCCPLVVTMRPIPK (UniProt Q7Z3D6) | -0.0708 | -0.0407
DDX41_Q9UJV9_338_KMVSLDICR (UniProt Q9UJV9) | -0.313 | -0.203
DDX58_O95786_278_TFVSLLICEHHLK (UniProt O95786) | 0.286 | -0.0366
DDX5_P17844_200_STCIYGGAPK (UniProt P17844) | -0.0684 | -0.21
DDA1_Q9BW61_25_FHADSVCK (UniProt Q9BW61) | -0.197 | -0.451
DDX24_Q9GZR7_570_IHCETDEK (UniProt Q9GZR7) | 0.225 | 0.0934
DDB1_Q16531_903_ELRTECNHYNNIMALYLK (UniProt Q16531) | -0.546 | -0.233
DGKZ_Q13574_330_IVVHTPCIEQLEK (UniProt Q13574) | 0.184 | -0.058
DDX46_Q7L014_377_SWVQCGISMK (UniProt Q7L014) | 0.156 | 0.0569
DDX60L_Q5H9U9_1127_AGSVCTFLEK (UniProt Q5H9U9) | -0.139 | -0.0265
DDX42_Q86XP3_281_KSEYTQPTPIQCQGVPVALSGR (UniProt Q86XP3) | -0.13 | -0.213
DDX5_P17844_221_GVEICIATPGR (UniProt P17844) | -0.0686 | 0.323
DENND3_A2RUS2_128_DCLSCLLALLK (UniProt A2RUS2) | -0.0517 | 0.242
DECR1_Q16698_116_VHAIQCDVR (UniProt Q16698) | 0.065 | 0.0272
DDX20_Q9UHI6_181_CHIAVGSPGR (UniProt Q9UHI6) | 0.0244 | 0.0669
DENND1A_Q8TEH3_338_IEPEEPITFCEEAFVSHYR (UniProt Q8TEH3) | 0.0159 | -0.115
DDX31_Q9H8H2_413_DITVILNAVNAECQK (UniProt Q9H8H2) | 0.101 | 0.158
